Results are given in words; binding and its absence hold for the method and conditions named. Binding seen in cells or lysates may run through a third protein. These calls come from enrichment with a bait or labelling near it, and not all partners need be listed. No binding means not detected with the bait.
How the values were obtained:
Assay in all cases: affinity purification with mass spectrometry; tandem affinity purification: whole cell extracts of stable Hek293 clones on IgG sepharose, TEV cleavage, pre-clearing with protein A beads, immunoprecipitation with anti-MYC (PHF10: anti-TY1), peptide elution, SDS-PAGE, silver stain, in-gel trypsin digest, nano-LC FT mass spectrometry
PHF10^TAP (human) = target: PHF10^TAP (human)
BCL7A^TAP (human) = target: BCL7A^TAP (human)
BCL7C^TAP (human) = BCL7C^TAP (human) (UniProt Q8WUZ0)
DPF2^TAP (human) = DPF2^TAP (human) (UniProt Q92785)
INI1^TAP (human) = INI1^TAP (human) (UniProt Q12824)
SS18^TAP (human) = target: SS18^TAP (human)

Chains of the proteins cited; added tags and fusions are not shown.
UniProt Q92785: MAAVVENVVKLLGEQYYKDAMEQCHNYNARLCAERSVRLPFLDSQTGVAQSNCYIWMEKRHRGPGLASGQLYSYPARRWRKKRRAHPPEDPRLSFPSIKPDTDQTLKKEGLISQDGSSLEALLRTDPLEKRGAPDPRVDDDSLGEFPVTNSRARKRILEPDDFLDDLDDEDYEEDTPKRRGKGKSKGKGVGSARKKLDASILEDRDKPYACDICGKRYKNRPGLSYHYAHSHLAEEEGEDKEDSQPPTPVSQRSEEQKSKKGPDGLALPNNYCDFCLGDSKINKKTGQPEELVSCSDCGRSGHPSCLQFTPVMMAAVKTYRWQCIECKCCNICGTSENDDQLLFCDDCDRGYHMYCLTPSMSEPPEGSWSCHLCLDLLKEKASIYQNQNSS
UniProt Q12824: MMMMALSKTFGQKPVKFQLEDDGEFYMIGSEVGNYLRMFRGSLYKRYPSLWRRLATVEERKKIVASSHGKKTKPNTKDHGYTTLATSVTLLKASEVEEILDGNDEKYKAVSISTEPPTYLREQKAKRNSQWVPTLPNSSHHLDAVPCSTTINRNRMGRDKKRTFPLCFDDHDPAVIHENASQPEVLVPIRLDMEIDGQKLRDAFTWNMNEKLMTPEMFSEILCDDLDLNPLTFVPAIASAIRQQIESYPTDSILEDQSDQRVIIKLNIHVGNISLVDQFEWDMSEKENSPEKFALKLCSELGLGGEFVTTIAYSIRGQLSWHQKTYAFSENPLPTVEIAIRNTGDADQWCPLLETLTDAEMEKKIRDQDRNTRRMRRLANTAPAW

Measured: binding

B1: MYBBP1A (protein, UniProt Q9BQG0 1-1328)
chain: MESRDPAQPMSPGEATQSGARPADRYGLLKHSREFLDFFWDIAKPEQETRLAATEKLLEYLRGRPKGSEMKYALKRLITGLGVGRETARPCYSLALAQLLQSFEDLPLCSILQQIQEKYDLHQVKKAMLRPALFANLFGVLALFQSGRLVKDQEALMKSVKLLQALAQYQNHLQEQPRKALVDILSEVSKATLQEILPEVLKADLNIILSSPEQLELFLLAQQKVPSKLKKLVGSVNLFSDENVPRLVNVLKMAASSVKKDRKLPAIALDLLRLALKEDKFPRFWKEVVEQGLLKMQFWPASYLCFRLLGAALPLLTKEQLHLVMQGDVIRHYGEHVCTAKLPKQFKFAPEMDDYVGTFLEGCQDDPERQLAVLVAFSSVTNQGLPVTPTFWRVVRFLSPPALQGYVAWLRAMFLQPDLDSLVDFSTNNQKKAQDSSLHMPERAVFRLRKWIIFRLVSIVDSLHLEMEEALTEQVARFCLFHSFFVTKKPTSQIPETKHPFSFPLENQAREAVSSAFFSLLQTLSTQFKQAPGQTQGGQPWTYHLVQFADLLLNHSHNVTTVTPFTAQQRQAWDRMLQTLKELEAHSAEARAAAFQHLLLLVGIHLLKSPAESCDLLGDIQTCIRKSLGEKPRRSRTKTIDPQEPPWVEVLVEILLALLAQPSHLMRQVARSVFGHICSHLTPRALQLILDVLNPETSEDENDRVVVTDDSDERRLKGAEDKSEEGEDNRSSESEEESEGEESEEEERDGDVDQGFREQLMTVLQAGKALGGEDSENEEELGDEAMMALDQSLASLFAEQKLRIQARRDEKNKLQKEKALRRDFQIRVLDLVEVLVTKQPENALVLELLEPLLSIIRRSLRSSSSKQEQDLLHKTARIFTHHLCRARRYCHDLGERAGALHAQVERLVQQAGRQPDSPTALYHFNASLYLLRVLKGNTAEGCVHETQEKQKAGTDPSHMPTGPQAASCLDLNLVTRVYSTALSSFLTKRNSPLTVPMFLSLFSRHPVLCQSLLPILVQHITGPVRPRHQACLLLQKTLSMREVRSCFEDPEWKQLMGQVLAKVTENLRVLGEAQTKAQHQQALSSLELLNVLFRTCKHEKLTLDLTVLLGVLQGQQQSLQQGAHSTGSSRLHDLYWQAMKTLGVQRPKLEKKDAKEIPSATQSPISKKRKKKGFLPETKKRKKRKSEDGTPAEDGTPAATGGSQPPSMGRKKRNRTKAKVPAQANGTPTTKSPAPGAPTRSPSTPAKSPKLQKKNQKPSQVNGAPGSPTEPAGQKQHQKALPKKGVLGKSPLSALARKKARLSLVIRSPSLLQSGAKKKAQVRKAGKP
no binding: all assays above

B2: BAF45A (protein, UniProt Q8WUB8 1-498)
chain: MAAAAGPGAALSPRPCDSDPATPGAQSPKDDNEDNSNDGTQPSKRRRMGSGDSSRSCETSSQDLGFSYYPAENLIEYKWPPDETGEYYMLQEQVSEYLGVTSFKRKYPDLERRDLSHKEKLYLRELNVITETQCTLGLTALRSDEVIDLMIKEYPAKHAEYSVILQEKERQRITDHYKEYSQMQQQNTQKVEASKVPEYIKKAAKKAAEFNSNLNRERMEERRAYFDLQTHVIQVPQGKYKVLPTERTKVSSYPVALIPGQFQEYYKRYSPDELRYLPLNTALYEPPLDPELPALDSDGDSDDGEDGRGDEKRKNKGTSDSSSGNVSEGESPPDSQEDSFQGRQKSKDKAATPRKDGPKRSVLSKSVPGYKPKVIPNAICGICLKGKESNKKGKAESLIHCSQCENSGHPSCLDMTMELVSMIKTYPWQCMECKTCIICGQPHHEEEMMFCDMCDRGYHTFCVGLGAIPSGRWICDCCQRAPPTPRKVGRRGKNSKEG
no binding: BCL7A^TAP (human) | BCL7C^TAP (human)

B3: RBM14 (protein, UniProt Q96PK6 1-669)
chain: MKIFVGNVDGADTTPEELAALFAPYGTVMSCAVMKQFAFVHMRENAGALRAIEALHGHELRPGRALVVEMSRPRPLNTWKIFVGNVSAACTSQELRSLFERRGRVIECDVVKDYAFVHMEKEADAKAAIAQLNGKEVKGKRINVELSTKGQKKGPGLAVQSGDKTKKPGAGDTAFPGTGGFSATFDYQQAFGNSTGGFDGQARQPTPPFFGRDRSPLRRSPPRASYVAPLTAQPATYRAQPSVSLGAAYRAQPSASLGVGYRTQPMTAQAASYRAQPSVSLGAPYRGQLASPSSQSAAASSLGPYGGAQPSASALSSYGGQAAAASSLNSYGAQGSSLASYGNQPSSYGAQAASSYGVRAAASSYNTQGAASSLGSYGAQAASYGAQSAASSLAYGAQAASYNAQPSASYNAQSAPYAAQQAASYSSQPAAYVAQPATAAAYASQPAAYAAQATTPMAGSYGAQPVVQTQLNSYGAQASMGLSGSYGAQSAAAATGSYGAAAAYGAQPSATLAAPYRTQSSASLAASYAAQQHPQAAASYRGQPGNAYDGAGQPSAAYLSMSQGAVANANSTPPPYERTRLSPPRASYDDPYKKAVAMSKRYGSDRRLAELSDYRRLSESQLSFRRSPTKSSLDYRRLPDAHSDYARYSGSYNDYLRAAQMHSGYQRRM
no binding: SS18^TAP (human)

Source: paper PMC3307773
